# From PubChem BioAssay AID1347076 (National Center for Advancing Translational Sciences (NCATS), 2019)
# Among all 400,000 compounds or so, about 13,000 (3.2%) were called active. The inconclusive results got no clear call from the source; some entries with a clear call stand among them for comparison. Calls come from the whole dose curve; as a rule, active = well fitted cell-killing curve with a large enough effect; inconclusive = small, poorly fitted or top-dose-only effect, or effect the other way; inactive = flat fitted curve, though single readings scatter. A potency beside an inconclusive call is a rough fit, not a confirmed value.
# Assay: qHTS assay for MDR1-selective chemotherapeutics: Primary screen using the drug-selected MDR subline cells KB-V1; note: nearly all actives have a fitted effect of over 60% in size
# Conditions: KB-V1 MDR cells viability, CellTiter-Glo, 72 h; activity change, negative = cytotoxicity: at 46.1 µM (top of the series)
# Method in brief: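 Potencies derive from concentration-effect curves fitted to normalized luminescence (CellTiter-Glo) of KB-V1 cells treated for 72 h at 37 degrees C in phenol-red-free DMEM containing 10% FBS.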
# % is set by controls: 0 for no effect and ±100 for the full control effect; potency is the fitted concentration of half-maximal effect.
Compound,Potency,"activity change, negative = cytotoxicity"
O=C(Nc1nc(-c2ccc(Oc3ccccc3)cc2)cs1)C1=COCCO1,active: 18.4 µM,–
COc1ccc(C2=CCN3CCCCC3C2)c(-c2ccc(OC)c(OC)c2)c1 (stereo unspecified),–,inconclusive: 31.2%
COc1ccc(NC(=O)c2cc([N+](=O)[O-])ccc2NC(=O)CNCc2ccccn2)c(OC)c1,"inconclusive: 2.31 µM [cytotoxic, full curve]",–
COc1ccc(NC(=O)/C(C#N)=C/c2ccc3c(c2)n(C)c(=O)n3C)cc1,"inconclusive: 29.1 µM [rising, single point]",–
OC(COC(c1ccc(F)cc1)c1ccc(F)cc1)CN1CCc2ccccc2C1 (stereo unspecified),active: 16.4 µM,–
CCOC(=O)C(C)N1C(=O)S/C(=C/c2ccc3c(c2)n(C)c(=O)n3C)C1=O (stereo unspecified),–,inactive: 0%
O=C(NCCN1CCOCC1)c1ccc(-c2ccccc2)cc1,"inconclusive: 20.6 µM [cytotoxic, single point]",–
C=CCN(c1ccccc1)S(=O)(=O)c1cccc(C(=O)N(CC)CC(=O)Nc2c(F)cccc2F)c1,"inconclusive: 25.9 µM [cytotoxic, partial curve, poor fit]",–
CC1CCN(c2ccc3c(c2)S(=O)(=O)c2ccccc2C3=O)CC1,–,inactive: -7.53%
COc1ccc(-c2sc3ccc(OC)cc3c2C#CCCO)cc1,–,inactive: 22.3%
COc1ccc(C(=O)Oc2c(Sc3ccccc3)c(C)nn2-c2ccccc2)c(OC)c1,"inconclusive: 18.4 µM [rising, single point]",–
Cc1cc(C)cc(OCCN2CCOCC2)c1,"inconclusive: 20.6 µM [rising, single point]",–
Cc1ccc(NC(=O)c2ccc(Cn3cc(Br)cn3)o2)cc1,"inconclusive: 1.46 µM [cytotoxic, full curve]",–
Cc1nc(-c2ccccc2)nc2[nH]ccc(=O)c12,active: 9.2 µM,–
O=C(Nc1cccn2ncnc12)c1ccc(Cl)cc1,"inconclusive: 18.4 µM [cytotoxic, partial curve]",–
COc1ccc2oc(=Nc3ccccc3)c(-c3nc4ccccc4[nH]3)cc2c1,"inconclusive: 5.8 µM [cytotoxic, partial curve, poor fit]",–
Nc1ncnc(Nc2ccccc2Cl)n1,–,inactive: 15.8%
CCOc1ccc(NC(=O)c2cc(-c3ccc(C)c(F)c3)on2)c([N+](=O)[O-])c1,"inconclusive: 5.17 µM [rising, full curve]",–

Compound,Potency,"activity change, negative = cytotoxicity"
N#C/C(=C/c1ccc(Sc2nc3ccccc3[nH]2)o1)c1ccccc1F,active: 3.66 µM,–
O=C(Cc1cccs1)Nc1nnc(Cc2ccccc2)s1,"inconclusive: 25.9 µM [cytotoxic, single point]",–
Cc1ccc(NC(=O)CSc2nnnn2-c2cccnc2)c(C)c1,"inconclusive: 18.4 µM [rising, single point]",–
O=C(Nc1nccs1)c1ccc(Br)c(S(=O)(=O)N2CCCC2)c1,"inconclusive: 7.31 µM [cytotoxic, partial curve]",–
c1ccc(-c2cc3ccccc3[nH]2)cc1,–,inactive: 0.361%
COc1cc(/C=C(\CC(=O)O)c2nc3ccccc3s2)cc(OC)c1O,–,inactive: -10.9%
O=C(NCC(F)(F)F)c1csc([C@@H]2O[C@H](CO)[C@H](O)[C@H](O)[C@H]2O)n1,–,inactive: 4.16%
CC(C)(C)c1ccc(C(=O)NCC(c2ccco2)S(=O)(=O)c2ccccc2)cc1 (stereo unspecified),"inconclusive: 0.0046 µM [rising, full curve, poor fit]",–
COc1ccccc1CCN1CCCC(CN(C)CC(C)(C)CO)C1 (stereo unspecified),"inconclusive: 23.1 µM [cytotoxic, partial curve, poor fit]",–
CCCC(=O)N1CCC1(C)C(=O)NS(=O)(=O)c1ccccc1 (stereo unspecified),–,inactive: -1.34%
CCc1ccc(N2C=C(C(=O)OC)C(c3ccc(OC)cc3)C(C#N)=C2N)cc1 (stereo unspecified),active: 18.4 µM,–
CC1(c2ccccc2)NC(=O)N(CC(=O)N(c2ccccc2)C2CCS(=O)(=O)C2)C1=O (stereo unspecified),"inconclusive: 25.9 µM [rising, single point]",–
CCc1nc(SCC(=O)N2CC(=O)Nc3ccccc32)c2c(C)c(C)sc2n1,–,inactive: -4.09%
CCOC(=O)c1ccccc1NC(=O)c1cccc2c1C(=O)N(C1CCN(C(=O)OCC)CC1)C2,–,inactive: -1.03%
CC(C)c1ccc(/C=N/Nc2cc(N3CCOCC3)nc(N3CCOCC3)n2)cc1,"inconclusive: 29.1 µM [cytotoxic, single point]",–
C1=C(c2ccccc2)CCN(c2nc3ccccc3n3cnnc23)C1,–,inactive: -11%
O=C(Oc1ccc2c(c1)OCO2)c1ccc(Br)c(S(=O)(=O)N2CCOCC2)c1,–,inactive: -3.25%
CC(C)c1ccc(OCC(=O)Nc2ccc(S(=O)(=O)Nc3ncccn3)cc2)cc1,–,inactive: 10.5%

# In the list so far, these have a cyano group.
Compound,Potency,"activity change, negative = cytotoxicity"
COc1ccc(NC(=O)/C(C#N)=C/c2ccc3c(c2)n(C)c(=O)n3C)cc1,"inconclusive: 29.1 µM [rising, single point]",–
N#C/C(=C/c1ccc(Sc2nc3ccccc3[nH]2)o1)c1ccccc1F,active: 3.66 µM,–
CCc1ccc(N2C=C(C(=O)OC)C(c3ccc(OC)cc3)C(C#N)=C2N)cc1 (stereo unspecified),active: 18.4 µM,–
